Measured values: patent US9765382B2, “Application of ruthenium complexes as nucleic acid vectors of target cell nucleuses” (Guangdong Pharmaceutical University, priority 2015, dated 2017)

Test system: c-myc Pu22
Assay: TEM of ruthenium complex-induced self-assembly of c-myc Pu22 DNA
Settings: 1 mM complex : 1 mM c-myc Pu22, 1:1, heated to 90° C. (no microwave)

Compound	structure into which the nucleic acid self-assembles (TEM)
[Ru(bpy)2pBEPIP](ClO4)2	nanotube structure
[Ru(phen)2pBEPIP](ClO4)2	analogous nanotube structure
Λ-[Ru(bpy)2pBEPIP](ClO4)2	analogous nanotube structure
Δ-[Ru(bpy)2pBEPIP](ClO4)2	analogous nanotube structure

Same assay, conditions: 1 mM complex : 1 mM c-myc Pu22 DNA, 1:1, 90° C. under microwave radiation

Compound	structure into which the nucleic acid self-assembles (TEM)
[Ru(bpy)2oBEPIP](ClO4)2	analogous nanotube structure
COc1ccc(-c2nc3c4cccnc4c4ncccc4c3[nH]2)cc1.[O-][Cl+3]([O-])([O-])[O-].[O-][Cl+3]([O-])([O-])[O-].[Ru+2].c1cnc2c(c1)ccc1cccnc12.c1cnc2c(c1)ccc1cccnc12 [[Ru(phen)2pMOPIP](ClO4)2]	analogous nanotube structure
Brc1cccc(-c2nc3c4cccnc4c4ncccc4c3[nH]2)c1.[O-][Cl+3]([O-])([O-])[O-].[O-][Cl+3]([O-])([O-])[O-].[Ru+2].c1cnc2c(c1)ccc1cccnc12.c1cnc2c(c1)ccc1cccnc12 [[Ru(phen)2mBrPIP](ClO4)2]	analogous nanotube structure
[Ru(bpy)2pTEPIP](ClO4)2	analogous nanotube structure
[Ru(phen)2pTEPIP](ClO4)2	analogous nanotube structure
Brc1ccc(-c2nc3c4cccnc4c4ncccc4c3[nH]2)cc1.[O-][Cl+3]([O-])([O-])[O-].[O-][Cl+3]([O-])([O-])[O-].[Ru+2].c1ccc(-c2ccccn2)nc1.c1ccc(-c2ccccn2)nc1 [[Ru(bpy)2pBrPIP](ClO4)2]	analogous nanotube structure
COc1ccc(-c2nc3c4cccnc4c4ncccc4c3[nH]2)cc1.[O-][Cl+3]([O-])([O-])[O-].[O-][Cl+3]([O-])([O-])[O-].[Ru+2].c1ccc(-c2ccccn2)nc1.c1ccc(-c2ccccn2)nc1 [[Ru(bpy)2pMOPIP](ClO4)2]	analogous nanotube structure
[Ru(phen)2pEPIP](ClO4)2	analogous nanotube structure
Brc1ccccc1-c1nc2c3cccnc3c3ncccc3c2[nH]1.[O-][Cl+3]([O-])([O-])[O-].[O-][Cl+3]([O-])([O-])[O-].[Ru+2].c1cnc2c(c1)ccc1cccnc12.c1cnc2c(c1)ccc1cccnc12 [[Ru(phen)2oBrPIP](ClO4)2]	analogous nanotube structure
[O-][Cl+3]([O-])([O-])[O-].[O-][Cl+3]([O-])([O-])[O-].[Ru+2].c1ccc2nc3c4cccnc4c4ncccc4c3nc2c1.c1cnc2c(c1)ccc1cccnc12.c1cnc2c(c1)ccc1cccnc12 [[Ru(phen)2DPPZ](ClO4)2]	analogous nanotube structure
[Ru(phen)2mBEPIP](ClO4)2	analogous nanotube structure
[Ru(phen)2oBEPIP](ClO4)2	analogous nanotube structure
Brc1ccc(-c2nc3c4cccnc4c4ncccc4c3[nH]2)cc1.[O-][Cl+3]([O-])([O-])[O-].[O-][Cl+3]([O-])([O-])[O-].[Ru+2].c1cnc2c(c1)ccc1cccnc12.c1cnc2c(c1)ccc1cccnc12 [[Ru(phen)2pBrPIP](ClO4)2]	analogous nanotube structure
[Ru(bpy)2pEPIP](ClO4)2	analogous nanotube structure
COc1cccc(-c2nc3c4cccnc4c4ncccc4c3[nH]2)c1.[O-][Cl+3]([O-])([O-])[O-].[O-][Cl+3]([O-])([O-])[O-].[Ru+2].c1cnc2c(c1)ccc1cccnc12.c1cnc2c(c1)ccc1cccnc12 [[Ru(phen)2mMOPIP](ClO4)2]	analogous nanotube structure
[Ru(bpy)23-BrDPPZ](ClO4)2	analogous nanotube structure
COc1ccccc1-c1nc2c3cccnc3c3ncccc3c2[nH]1.[O-][Cl+3]([O-])([O-])[O-].[O-][Cl+3]([O-])([O-])[O-].[Ru+2].c1ccc(-c2ccccn2)nc1.c1ccc(-c2ccccn2)nc1 [[Ru(bpy)2oMOPIP](ClO4)2]	analogous nanotube structure
[Ru(phen)2oMOPIP](ClO4)2	analogous nanotube structure
[Ru(phen)2pBEPIP](ClO4)2	analogous nanotube structure
[Ru(bpy)2DPPZ](ClO4)2	analogous nanotube structure
COc1cccc(-c2nc3c4cccnc4c4ncccc4c3[nH]2)c1.[O-][Cl+3]([O-])([O-])[O-].[O-][Cl+3]([O-])([O-])[O-].[Ru+2].c1ccc(-c2ccccn2)nc1.c1ccc(-c2ccccn2)nc1 [[Ru(bpy)2mMOPIP](ClO4)2]	analogous nanotube structure
[Ru(phen)23-BrDPPZ](ClO4)2	analogous nanotube structure
[Ru(bpy)23-BEDPPZ](ClO4)2	analogous nanotube structure
[Ru(bpy)2mBEPIP](ClO4)2	analogous nanotube structure
[Ru(phen)23-BEDPPZ](ClO4)2	analogous nanotube structure

Same assay, conditions: 1 mM complex : 10 mM c-myc Pu22 DNA, 1:10, 90° C. under microwave radiation

Compound	structure into which the nucleic acid self-assembles (TEM)
Brc1cccc(-c2nc3c4cccnc4c4ncccc4c3[nH]2)c1.[O-][Cl+3]([O-])([O-])[O-].[O-][Cl+3]([O-])([O-])[O-].[Ru+2].c1ccc(-c2ccccn2)nc1.c1ccc(-c2ccccn2)nc1 [[Ru(bpy)2mBrPIP](ClO4)2]	analogous nanotube structure
Brc1ccccc1-c1nc2c3cccnc3c3ncccc3c2[nH]1.[O-][Cl+3]([O-])([O-])[O-].[O-][Cl+3]([O-])([O-])[O-].[Ru+2].c1ccc(-c2ccccn2)nc1.c1ccc(-c2ccccn2)nc1 [[Ru(bpy)2oBrPIP](ClO4)2]	analogous nanotube structure

Same assay, conditions: 10 mM complex : 1 mM c-myc Pu22 DNA, 10:1, 90° C. under microwave radiation

Compound	structure into which the nucleic acid self-assembles (TEM)
[O-][Cl+3]([O-])([O-])[O-].[O-][Cl+3]([O-])([O-])[O-].[Ru+2].c1ccc(-c2nc3c4cccnc4c4ncccc4c3[nH]2)cc1.c1cnc2c(c1)ccc1cccnc12.c1cnc2c(c1)ccc1cccnc12 [[Ru(phen)2PIP](ClO4)2]	analogous nanotube structure
[O-][Cl+3]([O-])([O-])[O-].[O-][Cl+3]([O-])([O-])[O-].[Ru+2].c1ccc(-c2ccccn2)nc1.c1ccc(-c2ccccn2)nc1.c1ccc(-c2nc3c4cccnc4c4ncccc4c3[nH]2)cc1 [[Ru(bpy)2PIP](ClO4)2]	analogous nanotube structure

Some entries repeat one wording, which the source may state once for all of them.
